According to PMC7693658, “SaUspA, the Universal Stress Protein of Sulfolobus acidocaldarius Stimulates the Activity of the PP2A Phosphatase and Is Involved in Growth at High Salinity” (Frontiers in Microbiology, 2020):
No constants are given. Whether binding was seen depends on the method and setting. In cells and extracts the contact can be indirect. Binding can be weak; no strength is given. Where a sequence is shown, tags or fusion partners need not be part of it.

Target: T1, C-terminally his6-tagged PP2A (serine/threonine protein phosphatase PP2A of Sulfolobus acidocaldarius) (Sulfolobus acidocaldarius) (UniProt Q4JAD1)
T1 sequence: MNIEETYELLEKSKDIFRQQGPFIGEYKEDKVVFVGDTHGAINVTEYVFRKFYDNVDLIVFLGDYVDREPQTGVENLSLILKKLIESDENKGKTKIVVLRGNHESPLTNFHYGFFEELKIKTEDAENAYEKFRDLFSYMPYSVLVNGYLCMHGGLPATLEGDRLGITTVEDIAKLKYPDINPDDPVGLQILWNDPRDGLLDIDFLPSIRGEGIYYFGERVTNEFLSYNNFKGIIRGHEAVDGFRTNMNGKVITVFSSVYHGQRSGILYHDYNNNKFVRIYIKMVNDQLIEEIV
Test: pull-down; co-purification: 500 μL of each purified protein (0.5 mg/mL) mixed, 55°C for 30 min, applied to IMAC (Ni-NTA) resin that holds PP2A-his, washed, eluted with imidazole; Western blot with α-His and α-Strep; without or with pre-incubation of SaUspA with 1 mM ATP, 5 mM MgCl2 at 25°C for 30 min; both purified

## StrepII-tagged SaUspA^G97A (ATP-binding deficient mutant of SaUspA) (Sulfolobus acidocaldarius)
  binding: binds
